Data source: PubChem BioAssay AID1259308 (NCATS, 2017)

- Assay: 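Candidate targets for better recombinant protein yield in mammalian cells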 (primary screen)
- System: human HEK293 embryonic kidney cells stably expressing firefly luciferase (HEK-CMV-Luc2-Hygro)
- Reagent: single siRNA against human genes, 0.8 pmol siRNA per well
- Time to read-out: 72 h
- Measurement: 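Luciferase light (ONE-Glo) measured on one replicate plate set and viability (CellTiter-Glo) on the other, scaled to a negative control siRNA, with robust z-scores and luciferase per cell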
- Scale: total luciferase, z-score and total luciferase, % of control: higher = more reporter protein produced
- Call rule: 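An siRNA counts as active if its total luciferase robust z-score exceeds 3; genes with two or more such siRNAs out of three were retested with fresh siRNAs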
- Meaning of the calls: active = raised luciferase; inactive = no rise
Here is a random part of about 59,000 reagents. Over the whole deposit, about 1,510 (2.6%) are marked active. 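Calls use total luciferase alone and ignore viability, so some active siRNAs may act by altering cell number.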 The numbers tell different reagents against one gene apart. Not all columns of the deposit are shown. No sequences are given here.

Which result is listed for TAP2 (GeneID 6891) #1?
total luciferase, z-score: -0.966; total luciferase, % of control: 62.7; Outcome: inactive

What is on record for TAP2 (GeneID 6891) #2?
total luciferase, z-score: 1.56; total luciferase, % of control: 113; Outcome: inactive

What is on record for TAP2 (GeneID 6891) #3?
total luciferase, z-score: -0.505; total luciferase, % of control: 71.8; Outcome: inactive

For TSLIG1 (GeneID 339487) #1, what does the deposit list?
total luciferase, z-score: -0.27; total luciferase, % of control: 76.5; Outcome: inactive

With TSLIG1 (GeneID 339487) #2, how do the results read?
total luciferase, z-score: 0.0588; total luciferase, % of control: 83.1; Outcome: inactive

What is on record for TSLIG1 (GeneID 339487) #3?
total luciferase, z-score: -0.691; total luciferase, % of control: 68.1; Outcome: inactive

Which result is listed for CTR9 (GeneID 9646) #1?
total luciferase, z-score: -0.264; total luciferase, % of control: 76.6; Outcome: inactive

For CTR9 (GeneID 9646) #2, what was measured?
total luciferase, z-score: 0.529; total luciferase, % of control: 92.4; Outcome: inactive

For CTR9 (GeneID 9646) #3, what does the deposit list?
total luciferase, z-score: -1.77; total luciferase, % of control: 46.6; Outcome: inactive

How did the screen score TMEM26 (GeneID 219623) #1?
total luciferase, z-score: -0.246; total luciferase, % of control: 77; Outcome: inactive

With TMEM26 (GeneID 219623) #2, how do the results read?
total luciferase, z-score: -1.68; total luciferase, % of control: 48.4; Outcome: inactive

How did the screen score TMEM26 (GeneID 219623) #3?
total luciferase, z-score: 0.0549; total luciferase, % of control: 83; Outcome: inactive

With ORAI3 (GeneID 93129) #1, what does the deposit list?
total luciferase, z-score: -0.597; total luciferase, % of control: 70; Outcome: inactive

With ORAI3 (GeneID 93129) #2, how do the results read?
total luciferase, z-score: 0.389; total luciferase, % of control: 89.6; Outcome: inactive

With ORAI3 (GeneID 93129) #3, what does the deposit list?
total luciferase, z-score: -0.982; total luciferase, % of control: 62.4; Outcome: inactive

With ALOX15B (GeneID 247) #1, what was measured?
total luciferase, z-score: -1.42; total luciferase, % of control: 53.6; Outcome: inactive

What is on record for ALOX15B (GeneID 247) #2?
total luciferase, z-score: 0.793; total luciferase, % of control: 97.7; Outcome: inactive

For ALOX15B (GeneID 247) #3, how do the results read?
total luciferase, z-score: 1.16; total luciferase, % of control: 105; Outcome: inactive

What is on record for POLR3GL (GeneID 84265) #1?
total luciferase, z-score: 0.584; total luciferase, % of control: 93.5; Outcome: inactive

For POLR3GL (GeneID 84265) #2, what was measured?
total luciferase, z-score: 0.264; total luciferase, % of control: 87.1; Outcome: inactive

Which result is listed for POLR3GL (GeneID 84265) #3?
total luciferase, z-score: -1.25; total luciferase, % of control: 57.1; Outcome: inactive

Part of the list above, reduced to “total luciferase, % of control”.
TSLIG1 (GeneID 339487) #2 = 83.1
TSLIG1 (GeneID 339487) #3 = 68.1
